Patent publication US20040014147A1 (RIGEL PHARMACEUTICALS, published 2004)
Results are given in words; binding and its absence hold for the method and conditions named. Some entries that bind do so weakly or less than the wild type.

Protein sequences, listed by entry. Tags and fused reporters are not part of them. Lines headed by an entry give the natural chain unless they say otherwise; changes in a name come on top.
UniProt P55263: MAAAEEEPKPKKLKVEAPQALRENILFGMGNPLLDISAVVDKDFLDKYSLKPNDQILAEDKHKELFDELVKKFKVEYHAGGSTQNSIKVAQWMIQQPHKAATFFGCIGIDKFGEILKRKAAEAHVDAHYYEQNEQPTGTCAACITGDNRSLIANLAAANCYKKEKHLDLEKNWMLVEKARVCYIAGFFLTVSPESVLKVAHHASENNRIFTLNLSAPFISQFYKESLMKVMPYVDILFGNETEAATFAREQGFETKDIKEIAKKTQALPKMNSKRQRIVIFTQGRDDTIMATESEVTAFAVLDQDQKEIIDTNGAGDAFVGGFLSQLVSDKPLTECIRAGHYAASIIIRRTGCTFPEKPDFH

Columns and labels:
human adenosine kinase [1] = target: T1, human adenosine kinase (human, UniProt P55263 22-362); assay: yeast two-hybrid, beta-galactosidase signal; category R (reduction of interaction against wild type)
human adenosine kinase [2] = target: T1, human adenosine kinase; assay: yeast two-hybrid
human adenosine kinase [3] = target: T1, human adenosine kinase; assay: yeast two-hybrid interaction profile compared with functional profile

| binding (human adenosine kinase [1]) | binding (human adenosine kinase [2]) | binding (human adenosine kinase [3]) | Binder |
| --- | --- | --- | --- |
| binds | binds | – | DTMQVQCGVCAGGYVVAFWDVGP (peptide, not shown: large carriers) [peptide AR02E8RS] |
| binds | binds | – | DTMQVQCGAGRSGYVVAFWDVGP (peptide, not shown: large carriers) [peptide AR02E8VC] |
| – | binds | binds | DTMQVQCGVCRSGYVVAFWDVGP (peptide, not shown: large carriers) [peptide AR02E8 wt] |
